Results reported in US20070185089A1, “Benzazepine derivatives for the treatment of neurological and psychiatric disorders” (Glaxo Group Limited, priority 2004, published 2007).
Some results were stated once for a whole list of compounds, not compound by compound. For at least one compound, name, drawing or mass did not settle the structure.

Protein sequences, listed by entry. Tags and fused reporters are not part of them. Lines headed by an entry give the natural chain unless they say otherwise; changes in a name come on top.
UniProt Q9Y5N1: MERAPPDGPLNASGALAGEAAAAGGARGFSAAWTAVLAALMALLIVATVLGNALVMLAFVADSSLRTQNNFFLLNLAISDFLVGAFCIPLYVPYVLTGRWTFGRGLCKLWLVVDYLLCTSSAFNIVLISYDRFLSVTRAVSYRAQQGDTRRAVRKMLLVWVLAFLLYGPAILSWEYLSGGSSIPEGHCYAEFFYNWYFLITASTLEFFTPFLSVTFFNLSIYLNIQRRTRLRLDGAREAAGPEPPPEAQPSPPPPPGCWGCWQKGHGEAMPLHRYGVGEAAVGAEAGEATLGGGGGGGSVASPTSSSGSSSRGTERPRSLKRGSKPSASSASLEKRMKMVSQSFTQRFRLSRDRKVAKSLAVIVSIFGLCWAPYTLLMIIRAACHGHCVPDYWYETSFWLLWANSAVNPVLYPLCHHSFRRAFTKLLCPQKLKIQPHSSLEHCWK

Molecular target: T1, histamine H3 receptor (Homo sapiens, UniProt Q9Y5N1)
T1 construct: expressed in transfected cells; host or cells: CHO K1 cells carrying pSwitch, transfected with pGeneH3; mifepristone-induced; clone 3H3; membranes
Assay: Histamine H3 functional antagonist assay (method A), [35S]-GTPγS SPA on membranes
Type: biochemical
Conditions: histamine at EC80

O=C(Cc1ccc2ccccc2c1)N1CCN(c2ccc3c(c2)CCN(C2CCCC2)CC3)CC1 [Example E163, 3-Cyclopentyl-7-[4-(2-naphthalenylacetyl)-1-piperazinyl]-2,3,4,5-tetrahydro-1H-3-benzazepine]
antagonism in the histamine H3 functional antagonist assay (method A): > 6.5 pKb
